Test systems include GLRX5 (human); GLUL (human); GLYATL1 (human); GLYATL2 (human); GLYCTK (human); GMEB1 (human); GMPR2 (human); GNA15 (human); GNAI2 (human).
What all share (assay): protein microarray (ProtoArray v5.0), streptavidin-Alexa Fluor 647
What all share (conditions): 3'-biotin; 20 mM Tris (pH 7.5), 5 mM MgCl2, 100 mM KCl, 0.1% Tween-20, A/T-rich and random oligonucleotide blockers; temperature not stated; high values mean tight binding

Protein sequences, listed by entry. Tags and fused reporters are not part of them. Lines headed by an entry give the natural chain unless they say otherwise; changes in a name come on top.
UniProt P09471: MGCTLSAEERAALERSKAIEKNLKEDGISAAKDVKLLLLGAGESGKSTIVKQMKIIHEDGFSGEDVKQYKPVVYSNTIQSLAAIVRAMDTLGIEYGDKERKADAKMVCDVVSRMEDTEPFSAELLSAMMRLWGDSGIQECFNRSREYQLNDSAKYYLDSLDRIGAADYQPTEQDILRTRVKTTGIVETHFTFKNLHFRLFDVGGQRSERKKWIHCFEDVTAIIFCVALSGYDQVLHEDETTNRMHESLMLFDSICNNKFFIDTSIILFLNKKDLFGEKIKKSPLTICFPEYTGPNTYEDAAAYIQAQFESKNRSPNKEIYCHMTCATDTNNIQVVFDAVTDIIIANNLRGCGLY

In another experiment the target is GNAO1 (UniProt P09471).

Several values for one entry are separate records, joined by “and”; a condition that tells them apart may be missing. Equal values may be shown once. The list shows a part of the results. For some of these results: Construct or isoform of the protein are uncertain.

Consider “GGGAGGCTGAGGCAGG [G4-1 biotinylated (PQS2)]”, for which the binding signal in the experiment with GLRX5 (human) was -0.32 z-score; in the experiment on GLUL (human) it was -0.302 z-score and -0.327 z-score; in the experiment on GLYATL1 (human), -0.31 z-score; in the experiment with GLYATL2 (human), -0.336 z-score; in the experiment with GLYCTK (human), -0.334 z-score; in the experiment with GMEB1 (human) it was -0.331 z-score. Moreover, the binding signal in the experiment on GMPR2 (human) was -0.321 z-score; in the experiment on GNA15 (human), -0.295 z-score; in the experiment with GNAI2 (human), -0.277 z-score; in the experiment with GNAO1 it was -0.268 z-score.

The values above are taken from publication PMC5996148.
